In all, about 320,000 compounds went through this assay and about 22,000 (6.9%) were called active. The shares of active, inactive and inconclusive entries below differ from those in the screen. The call rests on the fitted dose curve; in most records, active means well fitted inhibition curve with a large enough effect; inconclusive means small, poorly fitted or top-dose-only effect, or another doubt; inactive means no such curve, though single readings can be large or run the other way. Potencies beside an inconclusive call are fits to weak or partial responses and may not hold up.
assay: Primary qHTS for delayed death inhibitors of the malarial parasite plastid, 96 hour incubation; conditions: P. falciparum luciferase reporter growth; series mostly up to 28.7 µM
In short: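 Luminescence readout: decreased luciferase signal marks inhibited growth of reporter-expressing P. falciparum in infected red cells (2% hematocrit, 0.05% parasitemia final), exposed to compound two generations (96 h, 37 C, 5% CO2).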
Potency means the concentration at half of the fitted maximal effect.

| Structure (SMILES) | Potency |
| --- | --- |
| CC(C)(C)OC(=O)NCc1n[nH]c(=S)n1C1CC1 | inactive |
| O=C(Nc1ccccc1C(F)(F)F)c1cc2ncc(CCCl)cn2n1 | inconclusive: 18.5 µM [inhibitor, single point] |
| Cc1nc2ccccn2c1C(=O)N/N=C/c1cc(C)n(-c2ccc(Cl)cc2)c1C | inconclusive: 8.28 µM [inhibitor, partial curve] |
| O=C(Nc1ccc(Cl)cc1)Nc1nnc(CSc2ccc(Cl)cc2)s1 | inconclusive: 14.7 µM [inhibitor, single point] |
| O=C(O)COc1ccccc1/C=N/NC(=O)Cc1ccccc1 | active: 10.4 µM |
| Cc1nc(CNS(=O)(=O)c2ccc(Br)cc2)cs1 | inconclusive: 11.7 µM [inhibitor, single point] |
| CCOC(=O)c1c(-c2ccc(F)cc2)csc1NC(=O)CCN1C(=O)c2ccccc2C1=O | inconclusive: 18.5 µM [inhibitor, single point] |
| COc1ccc(CC(=O)c2ccc(OC)c(OC)c2C)cc1OC | active: 10.4 µM |
| CC(C)(C)N(CC#CCC1(O)c2ccccc2-c2ccccc21)CCO | active: 11.7 µM |
| O=S(=O)(c1ccc(NC(=S)NC2CC2)cc1)N1CCOCC1 | inactive |
| Nc1c(C(=O)O)sc2nc(-c3ccccc3)cc(-c3ccccc3)c12 | inconclusive: 18.5 µM [inhibitor, single point] |
| Cc1cccc(Nc2nnc(SCC(=O)c3c(N)n(C4CC4)c(=O)[nH]c3=O)s2)c1C | inconclusive: 6.57 µM [inhibitor, partial curve, poor fit] |
| COc1ccc(NC(=O)C(c2cc3c(cc2[N+](=O)[O-])OCO3)N(C)C)cc1 (configuration not stated) | inconclusive: 0.117 µM [inhibitor, full curve, poor fit] |
| Cc1nc(CSc2ccc(Cl)cc2)cc(N2CCOCC2)n1 | active: 7.38 µM |
| CN(Cc1ccccc1)c1ncnc2sccc12 | inactive |
| O=C(CNc1ccccc1F)Nc1cc(S(=O)(=O)N2CCCCC2)ccc1Cl | inconclusive: 11.7 µM [inhibitor, partial curve, poor fit] |
| CCCCOc1ccccc1P(=O)(O)CP(=O)(c1ccccc1)c1ccccc1 | inconclusive: 0.465 µM [inhibitor, full curve, poor fit] |
| CCOC(=O)/C(C(=Nc1ccccc1)Nc1ccccc1)=C(\C)O | active: 10.4 µM |
| C/C(=N\NC(=O)C1(C)CC1(Br)Br)c1ccc(C)cc1C (configuration not stated) | inconclusive: 18.5 µM [inhibitor, single point] |
| Cc1ccc(C(=O)N/C(=C/c2ccc(C(C)C)cc2)C(=O)NCCCN2CCOCC2)cc1 | inconclusive: 18.5 µM [inhibitor, single point] |
| C/C(Cn1cnc([N+](=O)[O-])n1)=N\NC(=O)c1ccc(Br)cc1 | inactive |
| CCOC(=O)c1c(-n2c(C)cc(C=O)c2C)sc2c1CCCC2 | inconclusive: 5.22 µM [inhibitor, partial curve, poor fit] |
| C/C(=N\NC(=O)Cc1ccc(Cl)cc1)c1cccnc1 | inconclusive: 13.1 µM [inhibitor, partial curve, poor fit] |

| Structure (SMILES) | Potency |
| --- | --- |
| CCC(c1nnc(SCC(=O)Nc2ccc(C(C)=O)cc2)n1C1CCCCC1)N(C)C (configuration not stated) | inconclusive: 0.0208 µM [inhibitor, full curve] |
| C=CCNS(=O)(=O)c1cc2c3c(c1)CCN3C(=O)CC2 | inactive |
| Cc1cccc(NC(=O)NNC(=O)c2cc(-c3ccccc3Cl)nc3ccccc23)c1 | inconclusive: 11.7 µM [inhibitor, single point] |
| O=[N+]([O-])c1ccccc1C1Nc2cccc3cccc(c23)N1 | inconclusive: 5.86 µM [inhibitor, partial curve] |
| CC(C)C(NS(=O)(=O)c1ccccc1)C(=O)N1CCCC1 (configuration not stated) | inconclusive: 13.1 µM [inhibitor, single point] |
| COc1ccc(CC(=O)NCC(=O)N/N=C(/C)c2ccco2)cc1 | inactive |
| CCCCOC(=O)Cn1c(=O)c2c(nc3n2CCCCN3c2ccc(C)cc2)n(C)c1=O | inactive |
| O=C1C(Oc2ccccc2)C(c2cccs2)N1Cc1ccc2c(c1)OCO2 (configuration not stated) | inconclusive: 10.4 µM [inhibitor, single point] |
| Cn1c(=O)c(Nc2ccc(O)cc2)c2c3c(cccc31)C(=O)c1ccccc1-2 | inconclusive: 18.5 µM [inhibitor, single point] |
| CCC(Sc1nc(-c2ccccc2)c(-c2ccccc2)[nH]1)C(=O)O (configuration not stated) | inactive |
| COCCn1c(C)cc(C2=NNC(=NC(C)(C)C)SC2)c1C | inconclusive: 13.1 µM [inhibitor, single point] |
| CN(CCc1ccccc1)C(=O)c1cc(COc2ccc(F)cc2Cl)on1 | inconclusive: 4.15 µM [inhibitor, single point] |
| Cc1cn2c(-c3ccncc3)nnc2s1 | inconclusive: 18.5 µM [inhibitor, single point] |
| CCOC(=O)c1c(NC(=O)C2(C)Cc3ccccc3C(=O)O2)sc2c1CCCC2 (configuration not stated) | inconclusive: 18.5 µM [inhibitor, single point] |
| C/C=C/C=C/C(=O)Nc1nccs1 | inconclusive: 18.5 µM [inhibitor, single point] |
| Cc1ccc(N(CC(=O)NCc2ccncc2)S(C)(=O)=O)cc1 | inconclusive: 18.5 µM [inhibitor, single point] |
| COc1ccccc1COn1c(=O)c(-c2ccco2)[n+]([O-])c2ccccc21 | inactive |
| NC(=O)c1ccc(-n2nnnc2SCc2ccccc2)cc1 | inactive |
| CC1Cc2cc(S(=O)(=O)NCc3ccccc3)ccc2N1C(=O)C1CCC1 (configuration not stated) | inconclusive: 2.33 µM [inhibitor, partial curve, poor fit] |
| C=CCn1c(SCc2ccc(C(=O)O)cc2)nc2sc(C)c(C)c2c1=O | inconclusive: 4.15 µM [inhibitor, single point] |
| Cc1ccc(C(C)C)c(OCc2nn(CC(=O)c3ccc(Cl)cc3)c3[n+]2CCCCC3)c1 | inconclusive: 3.29 µM [inhibitor, full curve, poor fit] |
| O=C(CNC(=O)C1COc2ccccc2O1)N/N=C/c1cc(Br)c(O)c(Br)c1 (configuration not stated) | inconclusive: 4.15 µM [inhibitor, partial curve] |
| CCN(CC)CCN(C(=O)c1ccc2ccccc2c1)c1nc2cc3c(cc2s1)OCO3 | inconclusive: 18.5 µM [inhibitor, single point] |

| Structure (SMILES) | Potency |
| --- | --- |
| COc1ccc(CNc2nc3c(c(=O)[nH]c(=O)n3C)n2CCCc2ccccc2)cc1 | inconclusive: 10.4 µM [inhibitor, partial curve, poor fit] |
| Cc1ccc(C(=O)Nc2ccc3c(c2)OCO3)cc1S(=O)(=O)N1CCOCC1 | inconclusive: 11.7 µM [inhibitor, partial curve] |
| O=C(CC12CC3CC(CC(C3)C1)C2)Nc1ccc2c(c1)COC2=O | inconclusive: 11.7 µM [inhibitor, single point] |
| O=C(Nc1ccnn1C1CCN(Cc2cccc(OCCO)c2)CC1)C1CCOC1 (configuration not stated) | active: 5.22 µM |
| CC(C)c1nc2oc3c(NCCO)ncnc3c2c2c1COC(C)(C)C2 | inconclusive: 18.5 µM [inhibitor, single point] |
| CCOC(=O)c1c(NC(=O)c2cc(C)oc2C)sc(C(=O)Nc2ccc(Cl)cc2)c1C | inconclusive: 0.0657 µM [inhibitor, full curve, poor fit] |
| COc1ccc(-c2nc3c([nH]2)c(=O)n(C)c(=O)n3C)c(OC)c1 | inconclusive: 0.131 µM [inhibitor, full curve, poor fit] |
| CC(C(=O)NC1CCCCC1)N(Cc1ccccc1)C(=O)c1snc(C(N)=O)c1N (configuration not stated) | inconclusive: 18.5 µM [inhibitor, single point] |
| O=C(CN(C(=O)CNS(=O)(=O)c1ccccc1)c1ccc2c(c1)OCCO2)NC1CCCCC1 | inconclusive: 18.5 µM [inhibitor, single point] |
| Cn1cc(CN2CCC(n3nccc3NC(=O)CCCc3ccccc3)CC2)cn1 | inconclusive: 10.4 µM [inhibitor, single point] |
| CCOc1ccc(C(=O)NCC(=O)NCC(c2ccco2)N2CCCCC2)cc1 (configuration not stated) | inactive |
| CC(C)NCC(O)COc1c(F)cc(Br)cc1F (configuration not stated) | inconclusive: 5.22 µM [inhibitor, partial curve, poor fit] |
| Cn1c(SCC(=O)N/N=C/C=C\c2ccco2)nc2ccccc21 | inconclusive: 1.65 µM [inhibitor, partial curve, poor fit] |
| CCC1C(=O)N=C(SCC(=O)Nc2ccc(Br)cn2)NC1=O (configuration not stated) | inconclusive: 5.22 µM [inhibitor, partial curve, poor fit] |
| C=CCn1c(=O)c2c(nc3n2CC(C)CN3c2cccc(OC)c2)n(C)c1=O (configuration not stated) | inconclusive: 11.7 µM [inhibitor, partial curve, poor fit] |
| Cc1cc([N+](=O)[O-])nn1CC(=O)Nc1cnc2ccccc2c1 | inconclusive: 16.5 µM [inhibitor, partial curve, poor fit] |
| CCN(C(=O)c1ccco1)c1nnc(-c2cccnc2)s1 | inconclusive: 11.7 µM [inhibitor, single point] |
| O=C(NCc1ccco1)c1ccc(COc2cccc3ccccc23)cc1 | active: 7.38 µM |
| Fc1ccccc1Nc1nc(-c2ccncc2)nc2ccccc12 | inconclusive: 18.5 µM [inhibitor, single point] |
| OC(COCC1COc2ccccc2O1)CN1CCN(c2ccccc2F)CC1 (configuration not stated) | active: 7.38 µM |
| Cc1ccc(C(=O)Nc2cccc(C(=O)N/N=C/c3ccc(O)cc3)c2)cc1 | inconclusive: 14.7 µM [inhibitor, single point] |

3 successive compounds from above:

| Structure (SMILES) | Potency |
| --- | --- |
| O=C(NCc1ccco1)c1ccc(COc2cccc3ccccc23)cc1 | active: 7.38 µM |
| Fc1ccccc1Nc1nc(-c2ccncc2)nc2ccccc12 | inconclusive: 18.5 µM [inhibitor, single point] |
| OC(COCC1COc2ccccc2O1)CN1CCN(c2ccccc2F)CC1 (configuration not stated) | active: 7.38 µM |

Source: PubChem BioAssay AID504834 (National Center for Advancing Translational Sciences (NCATS), 2011)
